Reference: patent publication EP1064002B9, “USE OF SPHINGOSIN-1-PHOSPHATE, SPHINGOSIN-1-PHOSPHATE DERIVATIVES AND/OR MIXTURES THEREOF FOR THE TREATMENT OF INFLAMMATORY DISEASES OF THE SKIN” (Dermapharm AG, priority 1998, dated 1999)
For part of these data: For at least one compound, name, drawing or mass did not settle the structure. Some results were stated once for a whole list of compounds, not compound by compound.

What was measured:
Type in all cases: cell-based
Fibroblasten = test: Fibroblast proliferation, non-stimulated cells in serum-free medium (DMEM without FKS); conditions: low concentrations
Excerpt: Das Wachstumsverhalten menschlicher. Fibroblasten in Gegenwart der Testsubstanzen wurde an nicht stimulierten Zellen verfolgt, die in serumfreiem Medium (nach Dulbecco modifiziertes Earle-Medium (DMEM) ohne fetales Kälber-Serum (FKS)) kultiviert wurden.

Keratinozyten = test: Keratinocyte proliferation in KGM, [3H]-thymidine incorporation into DNA; conditions: 1-10 µM, 4-day treatment
Description: Die Proliferation von Keratinozyten wurde in Gegenwart von 1-10 µM von Sphingolipid-Derivaten untersucht. Nach 4-tägiger Behandlung mit verschiedenen Sphingolipiden wurde in der logarithmischen Wachstumsphase der Keratinozyten der [^3H]-Thymidineinbau in die DNA gemessen. […] Eine Proliferationshemmung tritt bereits bei einer Konzentration von 1 µM ein, 10 µM SPP reduzierten den Thymidineinbau um ca. 63,1 % (Abb. 1). […] Anhand des MTT-Tests wurde die Zellvitalität in Gegenwart von 1-25 µM SPP untersucht, bis 10 µM wirkten die Substanzen nicht toxisch. […] Dies zeigten mikroskopische Untersuchungen, der MTT-Test als auch durchflußzytometrische Untersuchungen zu Apoptose und Nekrose.

Sphingosin-Kinase = test: Activation of sphingosine kinase

Question: Which results are given for CCCCCCCCCCCCC/C=C/[C@@H](O)[C@H](CO)N(C)C [DMS, Dimethylsphingosin]?
Answer: Proliferation von Fibroblasten (Fibroblasten): sehr geringe proliferationsfördernde Wirkung; Proliferation von Keratinozyten ([^3H]-Thymidineinbau in die DNA) (Keratinozyten): hemmten zwar ebenso den Thymidineinbau

Question: Which “Einfluss auf die Sphingosin-Kinase” value (Sphingosin-Kinase) does the source give for C=C1/C(=C\C=C2/CCC[C@]3(C)[C@@H]([C@H](C)/C=C/[C@@H](O)C4CC4)CC[C@@H]23)C[C@@H](O)C[C@@H]1O [Calcipotriol] here?
Answer: stärken aktivierenden Einfluss
